This test concerns the target T1, PXY-CFP (Arabidopsis thaliana) (UniProt Q9FII5).
T1 sequence: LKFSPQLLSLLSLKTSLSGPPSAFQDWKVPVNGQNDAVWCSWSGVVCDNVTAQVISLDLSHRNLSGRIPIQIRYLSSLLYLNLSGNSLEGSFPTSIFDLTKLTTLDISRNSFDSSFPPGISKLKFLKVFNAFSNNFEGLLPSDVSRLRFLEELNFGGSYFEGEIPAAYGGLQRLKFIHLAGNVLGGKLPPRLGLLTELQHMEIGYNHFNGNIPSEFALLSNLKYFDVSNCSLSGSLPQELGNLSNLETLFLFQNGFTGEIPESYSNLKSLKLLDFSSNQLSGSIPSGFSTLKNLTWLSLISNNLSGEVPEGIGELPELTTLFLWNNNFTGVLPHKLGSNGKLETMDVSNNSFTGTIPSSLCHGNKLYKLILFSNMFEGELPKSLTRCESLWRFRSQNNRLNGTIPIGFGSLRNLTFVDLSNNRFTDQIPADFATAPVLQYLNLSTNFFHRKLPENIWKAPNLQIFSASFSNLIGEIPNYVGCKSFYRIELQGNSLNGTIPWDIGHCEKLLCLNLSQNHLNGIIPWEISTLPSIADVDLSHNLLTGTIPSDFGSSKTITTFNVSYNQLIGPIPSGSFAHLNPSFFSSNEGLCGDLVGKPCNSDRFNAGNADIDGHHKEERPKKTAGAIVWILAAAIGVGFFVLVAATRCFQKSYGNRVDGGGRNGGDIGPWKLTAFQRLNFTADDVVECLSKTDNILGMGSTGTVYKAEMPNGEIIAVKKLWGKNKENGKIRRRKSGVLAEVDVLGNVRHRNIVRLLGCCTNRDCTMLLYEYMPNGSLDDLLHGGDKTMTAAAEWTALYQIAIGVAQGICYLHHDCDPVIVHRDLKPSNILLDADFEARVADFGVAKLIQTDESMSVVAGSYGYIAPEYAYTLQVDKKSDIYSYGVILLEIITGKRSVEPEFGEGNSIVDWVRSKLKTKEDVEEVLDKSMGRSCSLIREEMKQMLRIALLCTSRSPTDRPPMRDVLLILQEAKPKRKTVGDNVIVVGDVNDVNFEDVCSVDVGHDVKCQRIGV
The experiment in a line: FRET or BRET; FRET between CFP and YFP fusions coinfiltrated into Nicotiana leaves; epidermal cells, confocal spectral (Lambda mode) scans at the plasma membrane, 458 nm excitation.

These are yes or no findings as the source states them, for the method shown. In cells and extracts the contact can be indirect. Sequences can lack the tags named with a protein.

B1: ERL1-YFP (receptor, UniProt C0LGW6 26-966)
chain: MNNEGKALMAIKGSFSNLVNMLLDWDDVHNSDLCSWRGVFCDNVSYSVVSLNLSSLNLGGEISPAIGDLRNLQSIDLQGNKLAGQIPDEIGNCASLVYLDLSENLLYGDIPFSISKLKQLETLNLKNNQLTGPVPATLTQIPNLKRLDLAGNHLTGEISRLLYWNEVLQYLGLRGNMLTGTLSSDMCQLTGLWYFDVRGNNLTGTIPESIGNCTSFQILDISYNQITGEIPYNIGFLQVATLSLQGNRLTGRIPEVIGLMQALAVLDLSDNELVGPIPPILGNLSFTGKLYLHGNMLTGPIPSELGNMSRLSYLQLNDNKLVGTIPPELGKLEQLFELNLANNRLVGPIPSNISSCAALNQFNVHGNLLSGSIPLAFRNLGSLTYLNLSSNNFKGKIPVELGHIINLDKLDLSGNNFSGSIPLTLGDLEHLLILNLSRNHLSGQLPAEFGNLRSIQMIDVSFNLLSGVIPTELGQLQNLNSLILNNNKLHGKIPDQLTNCFTLVNLNVSFNNLSGIVPPMKNFSRFAPASFVGNPYLCGNWVGSICGPLPKSRVFSRGALICIVLGVITLLCMIFLAVYKSMQQKKILQGSSKQAEGLTKLVILHMDMAIHTFDDIMRVTENLNEKFIIGYGASSTVYKCALKSSRPIAIKRLYNQYPHNLREFETELETIGSIRHRNIVSLHGYALSPTGNLLFYDYMENGSLWDLLHGSLKKVKLDWETRLKIAVGAAQGLAYLHHDCTPRIIHRDIKSSNILLDENFEAHLSDFGIAKSIPASKTHASTYVLGTIGYIDPEYARTSRINEKSDIYSFGIVLLELLTGKKAVDNEANLHQLILSKADDNTVMEAVDPEVTVTCMDLGHIRKTFQLALLCTKRNPLERPTMLEVSRVLLSLVPSLQVAKKLPSLDHSTKKLQQENEVRNPDAEASQWFVQFREVISKSSI
Consider B1, for which the binding result is listed as “no binding”.
